Results deposited as PubChem BioAssay AID743454 (Peter MacCallum Cancer Centre, 2014).
Here is one part, drawn at random, of about 18,000 reagents. Of all reagents, 450 (2.5%) got an active call. 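Single biological run; no consistent viability z cut-off exists, so the class columns, not z-scores, define the calls.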 A number with no mark means an inactive call.

Assay: 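Knock-downs lowering viability or raising caspase 3/7 activity in vorinostat-treated resistant cells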 (primary screen)
Cell system: human HCT116-VR colon cancer cells, selected for vorinostat resistance
Reagents: siRNA pool against human genes, 40 nM siRNA pool
Time to read-out: vorinostat for 24 h, read-out about 72 h after transfection
Challenge: vorinostat at 2.5 µM final
Measurement: 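Two measures, CellTiter-Fluor viability and luminescent caspase 3/7 activity, each as fold change against same-plate mock wells, mean of duplicates, then screen-wide robust z-score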
Reading the numbers: viability robust z-score: higher = more viable cells than screen typical; caspase robust z-score: higher = more caspase 3/7 activity than screen typical
Call rule: 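a knock-down is a hit when classed RV1 or RV2 for lowered viability, or CA1 or CA2 for caspase activation; those lethal without drug were dropped; hits were retested singly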

Target gene	viability hit class	caspase hit class	viability robust z-score	caspase robust z-score
C17orf58	no change	no change	-0.08	-0.2
MED18	no change	no change	0.08	0
GPR12	RV2 (reduced viability) (active)	no change	-3.11	1.35
IWS1	no change	no change	0.23	-1
OR8S1	no change	no change	0.56	-0.12
MAPK3	no change	no change	1.15	4.71
IRF4	no change	no change	1.16	-0.78
COQ8A	no change	no change	-0.92	1.67
TRPM3	no change	no change	-0.46	0.91
LONRF3	no change	no change	-1	-1.08
RASL12	no change	no change	0.18	0.26
NRARP	no change	no change	0.12	0.92
PCNA	no change	no change	-1.32	1.52
HSPB6	no change	no change	-0.8	-0.53
MRPL30	no change	no change	-0.4	1.56
MS4A3	no change	no change	-0.2	-0.72
NDST2	no change	no change	0.47	-1.27
AGAP2	no change	no change	-1.64	0.88
TP53RK	no change	no change	-0.1	1.64
CALCR	no change	no change	-0.78	-0.44
NAPB	no change	no change	-1.03	-0.51
MS4A15	no change	no change	-1.66	2.66
GABRR1	no change	no change	0.63	0
GLIS1	no change	no change	1.09	-0.78
HSPA8	no change	no change	-0.16	-1.39
OPRPN	no change	no change	0.88	-0.96
SLC35A5	no change	no change	-1.38	1.31
CHL1	no change	no change	-0.05	-0.08
TOB2	no change	no change	0.16	1.58
ZSWIM7	no change	no change	0.42	0.17
CGB5	no change	no change	-0.19	-0.7
INSIG2	no change	no change	0.48	-0.38
KIF20B	no change	no change	1.25	-0.06
MAK	no change	no change	0.2	0.3
MOB4	no change	no change	0.12	1.55
MAGIX	no change	no change	-0.78	3.46
SAA2	no change	no change	-1.6	0.22
EPCIP	no change	no change	-1.04	2.92
NDUFC2	no change	no change	1.03	-0.77
CHPT1	no change	no change	0.4	-0.5
LACC1	no change	no change	-0.12	-0.79
TNFAIP6	no change	no change	-0.03	-1.36
CRX	no change	no change	1.14	-0.77

Continued, starting with the last 8 of the part before.
Target gene	viability hit class	caspase hit class	viability robust z-score	caspase robust z-score
MAGIX	no change	no change	-0.78	3.46
SAA2	no change	no change	-1.6	0.22
EPCIP	no change	no change	-1.04	2.92
NDUFC2	no change	no change	1.03	-0.77
CHPT1	no change	no change	0.4	-0.5
LACC1	no change	no change	-0.12	-0.79
TNFAIP6	no change	no change	-0.03	-1.36
CRX	no change	no change	1.14	-0.77
GNPDA2	no change	no change	-0.28	0.22
CIRSR	no change	no change	0.12	1.02
KCNN1	no change	no change	0.54	3.7
PRAF2	no change	no change	-0.37	0.01
PHACTR3	no change	no change	-0.26	-0.58
RRP15	no change	no change	-1.14	-0.14
CYP4A11	no change	no change	0.64	1.31
PAICS	no change	no change	0.69	2.4
ITGB8	no change	no change	-0.6	0.88
ENO2	no change	no change	0.22	-0.17
CFAP43	no change	no change	0.05	0.27
ISX	no change	no change	0.15	-0.5
PNMA6A	no change	no change	-1.57	4.31
HPCA	no change	no change	-0.22	-0.4
SRSF11	no change	no change	1.17	0.3
DHRS1	no change	no change	1.45	-0.8
C5	no change	no change	-0.08	1.06
TSGA13	no change	no change	1.18	-0.6
SETD4	no change	no change	-0.73	0.32
CSNK2A2	no change	no change	-2.63	4.09
MCRS1	no change	no change	-0.66	-0.22
SP140	no change	no change	2.06	0.67
SERPINH1	no change	no change	1.25	0.28
FAR2	no change	no change	1.31	0.62
EFNA4	no change	no change	1.22	0.98
PWWP2B	no change	no change	1.01	-0.06
SLC9A9	no change	no change	-0.04	-0.62
VCAN	no change	no change	1.14	-0.99
OR9Q2	no change	no change	-1.08	-0.04
RAPGEF6	no change	no change	-1.76	3.11
